Assay results published in publication PMC5503512, “The complex of TRIP-Br1 and XIAP ubiquitinates and degrades multiple adenylyl cyclase isoforms” (eLife, 2017).
No constants are given. Whether binding was seen depends on the method and setting. In cells and extracts the contact can be indirect. Some entries that bind do so weakly or less than the wild type. For some assays here: Sequences can lack the tags named with a protein.

Amino acid sequences for entries named in this document (tags omitted). A change or cut given only in a name is not applied to a line headed by its entry.
UniProt Q08828: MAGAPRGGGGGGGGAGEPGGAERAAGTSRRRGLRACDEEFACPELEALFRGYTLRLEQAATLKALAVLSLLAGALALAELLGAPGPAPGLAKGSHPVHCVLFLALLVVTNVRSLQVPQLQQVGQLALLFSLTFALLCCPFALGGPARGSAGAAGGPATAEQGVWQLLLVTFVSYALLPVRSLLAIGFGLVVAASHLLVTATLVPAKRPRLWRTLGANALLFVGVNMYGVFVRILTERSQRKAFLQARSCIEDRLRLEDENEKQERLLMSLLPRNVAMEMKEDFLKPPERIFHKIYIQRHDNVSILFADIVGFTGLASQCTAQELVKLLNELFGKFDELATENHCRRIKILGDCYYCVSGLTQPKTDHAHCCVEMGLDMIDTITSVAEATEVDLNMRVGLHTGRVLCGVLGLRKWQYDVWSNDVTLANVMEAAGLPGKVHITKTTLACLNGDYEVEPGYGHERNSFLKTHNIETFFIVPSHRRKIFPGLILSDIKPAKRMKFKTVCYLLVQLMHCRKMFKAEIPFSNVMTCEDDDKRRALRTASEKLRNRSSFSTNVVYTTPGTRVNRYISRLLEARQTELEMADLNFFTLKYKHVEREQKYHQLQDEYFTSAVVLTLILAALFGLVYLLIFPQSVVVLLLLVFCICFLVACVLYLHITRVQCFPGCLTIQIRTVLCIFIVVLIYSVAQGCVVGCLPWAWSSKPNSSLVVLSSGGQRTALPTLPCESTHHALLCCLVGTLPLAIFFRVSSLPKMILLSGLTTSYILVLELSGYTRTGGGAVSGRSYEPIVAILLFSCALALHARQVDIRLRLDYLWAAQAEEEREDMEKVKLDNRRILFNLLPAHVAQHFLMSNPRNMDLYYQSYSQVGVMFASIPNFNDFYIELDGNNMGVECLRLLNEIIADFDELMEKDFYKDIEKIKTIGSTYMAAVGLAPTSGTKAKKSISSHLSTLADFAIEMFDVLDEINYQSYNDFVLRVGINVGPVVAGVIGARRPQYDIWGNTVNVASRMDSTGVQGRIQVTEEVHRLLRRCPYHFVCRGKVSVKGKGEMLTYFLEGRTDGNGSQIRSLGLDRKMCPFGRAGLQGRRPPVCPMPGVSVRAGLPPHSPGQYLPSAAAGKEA
UniProt P19754: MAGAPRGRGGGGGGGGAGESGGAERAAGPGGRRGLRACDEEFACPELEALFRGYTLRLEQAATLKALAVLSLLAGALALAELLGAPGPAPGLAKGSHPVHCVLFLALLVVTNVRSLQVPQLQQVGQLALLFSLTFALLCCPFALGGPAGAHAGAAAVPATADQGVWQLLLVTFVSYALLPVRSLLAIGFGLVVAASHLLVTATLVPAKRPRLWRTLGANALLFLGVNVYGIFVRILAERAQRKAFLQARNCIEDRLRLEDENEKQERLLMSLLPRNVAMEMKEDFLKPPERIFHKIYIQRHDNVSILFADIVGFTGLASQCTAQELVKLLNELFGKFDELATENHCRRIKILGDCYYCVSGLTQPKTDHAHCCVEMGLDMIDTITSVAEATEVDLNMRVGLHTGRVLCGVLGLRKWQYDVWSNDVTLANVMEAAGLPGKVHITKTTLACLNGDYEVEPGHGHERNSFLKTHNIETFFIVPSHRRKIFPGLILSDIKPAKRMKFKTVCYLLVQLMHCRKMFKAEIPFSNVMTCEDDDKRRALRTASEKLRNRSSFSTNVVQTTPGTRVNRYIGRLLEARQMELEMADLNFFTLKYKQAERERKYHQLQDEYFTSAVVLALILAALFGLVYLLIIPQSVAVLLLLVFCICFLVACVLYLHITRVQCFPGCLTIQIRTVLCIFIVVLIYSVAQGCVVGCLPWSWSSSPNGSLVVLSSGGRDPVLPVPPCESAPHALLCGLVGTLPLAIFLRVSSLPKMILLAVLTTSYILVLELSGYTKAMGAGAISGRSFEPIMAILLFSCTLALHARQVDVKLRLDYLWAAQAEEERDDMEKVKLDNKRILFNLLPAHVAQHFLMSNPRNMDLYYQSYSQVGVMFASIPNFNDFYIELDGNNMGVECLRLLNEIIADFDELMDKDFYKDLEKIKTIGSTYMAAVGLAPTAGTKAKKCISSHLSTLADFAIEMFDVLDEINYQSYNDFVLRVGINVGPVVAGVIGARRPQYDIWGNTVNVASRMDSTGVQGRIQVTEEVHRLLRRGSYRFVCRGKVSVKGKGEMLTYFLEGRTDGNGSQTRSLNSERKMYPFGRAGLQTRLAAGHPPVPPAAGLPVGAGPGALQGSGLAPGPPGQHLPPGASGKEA
UniProt P26770: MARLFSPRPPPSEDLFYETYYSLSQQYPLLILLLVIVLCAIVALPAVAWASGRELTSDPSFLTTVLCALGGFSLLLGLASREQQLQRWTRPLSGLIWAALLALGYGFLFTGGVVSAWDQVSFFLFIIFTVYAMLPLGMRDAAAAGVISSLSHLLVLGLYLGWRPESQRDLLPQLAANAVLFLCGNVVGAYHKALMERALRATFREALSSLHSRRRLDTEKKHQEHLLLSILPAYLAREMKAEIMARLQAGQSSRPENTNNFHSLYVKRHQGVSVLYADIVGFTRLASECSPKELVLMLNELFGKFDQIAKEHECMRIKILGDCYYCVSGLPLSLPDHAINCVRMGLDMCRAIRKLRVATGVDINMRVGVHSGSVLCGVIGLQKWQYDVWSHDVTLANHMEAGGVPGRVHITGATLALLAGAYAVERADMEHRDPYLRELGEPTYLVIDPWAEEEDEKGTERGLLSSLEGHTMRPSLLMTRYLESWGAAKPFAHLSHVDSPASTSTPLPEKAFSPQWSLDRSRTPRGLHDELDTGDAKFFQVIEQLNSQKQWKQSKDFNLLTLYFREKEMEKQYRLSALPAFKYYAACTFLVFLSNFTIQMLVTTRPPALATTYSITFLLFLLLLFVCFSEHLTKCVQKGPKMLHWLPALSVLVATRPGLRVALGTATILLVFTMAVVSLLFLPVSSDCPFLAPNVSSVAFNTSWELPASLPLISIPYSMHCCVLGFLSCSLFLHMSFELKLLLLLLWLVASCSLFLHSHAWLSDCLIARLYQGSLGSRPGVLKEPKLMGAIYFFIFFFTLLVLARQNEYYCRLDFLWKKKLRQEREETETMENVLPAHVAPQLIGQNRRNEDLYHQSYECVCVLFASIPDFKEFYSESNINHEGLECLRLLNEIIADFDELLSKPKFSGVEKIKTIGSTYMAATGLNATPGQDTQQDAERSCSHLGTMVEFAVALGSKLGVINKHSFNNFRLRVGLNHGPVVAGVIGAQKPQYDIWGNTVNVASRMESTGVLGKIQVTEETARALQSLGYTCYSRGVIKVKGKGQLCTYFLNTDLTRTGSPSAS
UniProt P40144: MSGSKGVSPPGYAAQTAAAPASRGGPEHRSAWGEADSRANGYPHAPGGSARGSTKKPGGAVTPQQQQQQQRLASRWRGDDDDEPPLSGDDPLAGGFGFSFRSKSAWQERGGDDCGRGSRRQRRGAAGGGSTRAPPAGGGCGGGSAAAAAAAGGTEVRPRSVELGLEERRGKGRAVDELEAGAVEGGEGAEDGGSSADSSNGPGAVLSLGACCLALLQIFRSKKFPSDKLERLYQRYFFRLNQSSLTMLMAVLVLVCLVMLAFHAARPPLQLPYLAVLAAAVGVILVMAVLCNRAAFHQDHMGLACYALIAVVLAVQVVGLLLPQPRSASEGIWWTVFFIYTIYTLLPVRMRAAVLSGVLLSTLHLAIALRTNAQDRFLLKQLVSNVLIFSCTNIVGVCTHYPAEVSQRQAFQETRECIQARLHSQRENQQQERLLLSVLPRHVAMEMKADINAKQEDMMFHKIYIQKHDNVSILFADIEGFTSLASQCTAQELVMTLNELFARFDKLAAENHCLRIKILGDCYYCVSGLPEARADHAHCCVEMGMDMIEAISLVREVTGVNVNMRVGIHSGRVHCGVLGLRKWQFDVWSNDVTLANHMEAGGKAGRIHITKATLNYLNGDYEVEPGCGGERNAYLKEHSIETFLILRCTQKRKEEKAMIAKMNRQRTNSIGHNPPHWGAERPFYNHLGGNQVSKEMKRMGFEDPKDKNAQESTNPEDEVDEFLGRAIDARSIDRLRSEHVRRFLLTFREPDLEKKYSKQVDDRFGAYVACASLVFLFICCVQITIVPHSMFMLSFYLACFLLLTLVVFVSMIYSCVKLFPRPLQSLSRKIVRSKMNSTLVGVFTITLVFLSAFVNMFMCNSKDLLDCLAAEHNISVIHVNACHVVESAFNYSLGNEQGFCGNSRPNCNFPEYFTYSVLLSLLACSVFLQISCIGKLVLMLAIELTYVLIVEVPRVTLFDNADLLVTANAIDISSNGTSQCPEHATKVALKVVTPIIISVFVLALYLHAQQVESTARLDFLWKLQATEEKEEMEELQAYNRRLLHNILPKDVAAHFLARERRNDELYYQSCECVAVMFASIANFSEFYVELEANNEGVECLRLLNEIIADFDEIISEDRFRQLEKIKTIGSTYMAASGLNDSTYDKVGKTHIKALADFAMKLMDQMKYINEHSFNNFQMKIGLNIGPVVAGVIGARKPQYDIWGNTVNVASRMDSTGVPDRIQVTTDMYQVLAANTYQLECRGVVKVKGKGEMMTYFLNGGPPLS
UniProt Q03343: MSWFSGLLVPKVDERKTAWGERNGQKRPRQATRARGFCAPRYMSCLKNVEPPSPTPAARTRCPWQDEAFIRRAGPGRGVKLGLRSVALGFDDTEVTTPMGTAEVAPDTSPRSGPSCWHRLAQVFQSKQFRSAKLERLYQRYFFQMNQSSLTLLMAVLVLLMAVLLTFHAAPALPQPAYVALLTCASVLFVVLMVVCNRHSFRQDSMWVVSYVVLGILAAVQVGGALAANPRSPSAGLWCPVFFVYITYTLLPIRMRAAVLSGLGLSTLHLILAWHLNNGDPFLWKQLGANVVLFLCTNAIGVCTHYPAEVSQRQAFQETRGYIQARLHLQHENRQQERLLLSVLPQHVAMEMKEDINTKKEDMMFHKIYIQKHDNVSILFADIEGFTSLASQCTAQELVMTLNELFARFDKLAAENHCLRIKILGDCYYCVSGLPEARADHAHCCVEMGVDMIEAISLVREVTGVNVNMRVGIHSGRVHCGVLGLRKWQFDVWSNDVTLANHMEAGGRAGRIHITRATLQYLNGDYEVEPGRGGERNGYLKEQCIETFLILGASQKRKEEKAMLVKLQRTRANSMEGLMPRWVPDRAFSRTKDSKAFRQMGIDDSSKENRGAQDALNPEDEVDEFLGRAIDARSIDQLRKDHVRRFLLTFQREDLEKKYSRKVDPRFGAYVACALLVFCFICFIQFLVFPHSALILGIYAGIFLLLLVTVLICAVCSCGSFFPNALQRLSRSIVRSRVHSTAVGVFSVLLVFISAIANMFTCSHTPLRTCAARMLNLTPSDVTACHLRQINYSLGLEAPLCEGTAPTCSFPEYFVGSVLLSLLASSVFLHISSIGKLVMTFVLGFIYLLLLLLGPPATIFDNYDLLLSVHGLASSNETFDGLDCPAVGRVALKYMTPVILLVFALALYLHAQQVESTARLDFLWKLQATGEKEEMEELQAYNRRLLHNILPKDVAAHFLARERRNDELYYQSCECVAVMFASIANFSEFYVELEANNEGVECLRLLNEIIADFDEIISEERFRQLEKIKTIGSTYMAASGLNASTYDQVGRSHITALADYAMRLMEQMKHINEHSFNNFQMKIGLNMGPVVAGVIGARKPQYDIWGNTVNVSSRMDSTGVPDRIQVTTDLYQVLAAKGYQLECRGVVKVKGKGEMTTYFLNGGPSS

T1: GST-TRIP-Br1 fusion protein (full-length TRIP-Br1 fused with GST) (human) (UniProt Q9UHV2)
T1 sequence: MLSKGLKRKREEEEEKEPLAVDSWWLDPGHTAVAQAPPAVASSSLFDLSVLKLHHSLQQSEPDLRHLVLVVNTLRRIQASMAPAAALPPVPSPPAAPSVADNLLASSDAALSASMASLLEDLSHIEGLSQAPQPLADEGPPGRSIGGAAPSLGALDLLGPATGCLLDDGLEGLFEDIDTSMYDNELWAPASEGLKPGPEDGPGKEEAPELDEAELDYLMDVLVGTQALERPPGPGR


target: endogenous AC1 (adenylyl cyclase 1) in HeLa cells (human (endogenous in HeLa)) (UniProt Q08828); assay: co-IP; endogenous AC1 immunoprecipitated from HeLa whole-cell extracts with anti-AC1 antibody or control IgG; Protein A Sepharose beads washed 3 times with Co-IP lysis buffer plus 0.5% Triton X-100; immunoblot

binding | Molecule
binds | endogenous TRIP-Br1 in HeLa cells (protein, UniProt Q9UHV2 1-236) MLSKGLKRKREEEEEKEPLAVDSWWLDPGHTAVAQAPPAVASSSLFDLSVLKLHHSLQQSEPDLRHLVLVVNTLRRIQASMAPAAALPPVPSPPAAPSVADNLLASSDAALSASMASLLEDLSHIEGLSQAPQPLADEGPPGRSIGGAAPSLGALDLLGPATGCLLDDGLEGLFEDIDTSMYDNELWAPASEGLKPGPEDGPGKEEAPELDEAELDYLMDVLVGTQALERPPGPGR

target: T1, GST-TRIP-Br1 fusion protein (full-length TRIP-Br1 fused with GST) (human); assay: pull-down; GST or GST fusion proteins (5 μg) on glutathione-Sepharose beads, incubated overnight at 4°C with lysates of transfected HEK293T cells in Co-IP buffer; washed five times with Co-IP buffer plus 0.5% Triton X-100; western blot; only the target purified

Molecule | binding
AC2 (adenylyl cyclase 2), HA-tagged (from UniProt P26769 1-1090) (enzyme) | binds
GFP-tagged AC1 catalytic domain 1b (C1b; aa 494-612) (from UniProt P19754 494-612) (domain or fragment) | binds
HA-tagged AC1 (adenylyl cyclase 1) (from UniProt P19754 1-1134) (enzyme) | binds

Further lines, results first:

binding | Molecule
binds | AC4 (adenylyl cyclase 4), HA-tagged (from UniProt P26770 1-1064) (enzyme)
binds | AC5 (adenylyl cyclase 5), HA-tagged (from UniProt P40144 1-1264) (enzyme)
binds | AC6 (adenylyl cyclase 6), HA-tagged (from UniProt Q03343 1-1166) (enzyme)
binds | AC8 (adenylyl cyclase 8), HA-tagged (from UniProt P40146 1-1248) (enzyme)
